Reference: paper doi:10.1101/2021.06.07.21258350
No constants are given. Whether binding was seen depends on the method and setting.

By UniProt entry, the sequences of proteins in these tests, tags left out. Residues count along the entry.
UniProt P0DTC4: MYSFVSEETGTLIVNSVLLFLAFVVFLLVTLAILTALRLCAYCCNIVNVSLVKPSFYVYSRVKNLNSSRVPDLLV
UniProt P11226, residues 21-248: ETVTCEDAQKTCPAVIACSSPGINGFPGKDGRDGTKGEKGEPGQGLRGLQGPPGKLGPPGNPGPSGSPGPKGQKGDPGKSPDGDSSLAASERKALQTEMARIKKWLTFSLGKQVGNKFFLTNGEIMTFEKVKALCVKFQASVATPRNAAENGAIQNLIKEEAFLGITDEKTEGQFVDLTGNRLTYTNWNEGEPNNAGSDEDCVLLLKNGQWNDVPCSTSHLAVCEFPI
UniProt P02743, residues 20-223: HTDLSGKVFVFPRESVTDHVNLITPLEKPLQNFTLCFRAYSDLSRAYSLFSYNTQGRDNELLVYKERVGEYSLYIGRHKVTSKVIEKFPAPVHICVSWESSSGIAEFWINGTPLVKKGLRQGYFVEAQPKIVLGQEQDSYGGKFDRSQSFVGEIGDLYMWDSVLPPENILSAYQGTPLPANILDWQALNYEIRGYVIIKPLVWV
UniProt P03522, residues 17-511: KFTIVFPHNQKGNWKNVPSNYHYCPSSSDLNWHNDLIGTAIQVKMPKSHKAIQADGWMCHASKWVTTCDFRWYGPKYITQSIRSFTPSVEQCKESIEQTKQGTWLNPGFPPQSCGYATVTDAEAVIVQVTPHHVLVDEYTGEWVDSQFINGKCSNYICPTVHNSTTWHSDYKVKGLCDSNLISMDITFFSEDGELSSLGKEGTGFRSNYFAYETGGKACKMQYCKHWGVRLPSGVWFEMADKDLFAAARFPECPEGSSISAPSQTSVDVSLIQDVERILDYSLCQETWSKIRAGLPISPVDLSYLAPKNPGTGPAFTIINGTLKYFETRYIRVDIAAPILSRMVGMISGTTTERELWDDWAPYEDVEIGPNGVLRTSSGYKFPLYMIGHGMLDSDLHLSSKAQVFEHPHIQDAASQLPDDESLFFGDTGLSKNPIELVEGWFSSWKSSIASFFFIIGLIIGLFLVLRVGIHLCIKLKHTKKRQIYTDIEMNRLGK

B1: C-reactive protein (CRP), purified (protein, UniProt P02741 19-224)
chain: QTDMSRKAFVFPKESDTSYVSLKAPLTKPLKAFTVCLHFYTELSSTRGYSIFSYATKRQDNEILIFWSKDIGYSFTVGGSEILFEVPEVTVAPVHICTSWESASGIVEFWVDGKPRVRKSLKKGYTVGAEASIILGQEQDSFGGNFEGSQSLVGDIGNVNMWDFVLSPDEINTIYLGGPFSPNVLNWRALKYEVQGEVFTKPQLWP

Key:
[1] = target: Recombinant His Tag SARS-CoV-2 Envelope protein (SARS-CoV-2) (UniProt P0DTC4); assay: ELISA
[2] = target: Recombinant human Mannose Binding Lectin (MBL) (human) (UniProt P11226); assay: capture of pseudotyped lentivirus on coated plates, p24 ELISA after lysis

Molecule	binding [1]	binding [2]
Serum amyloid P component (SAP), purified (from UniProt P02743 20-223)	no binding (tested: SAP 4 µg/mL (32 nM))	
VSV-g glycoprotein pseudotyped on a lentivirus vector (from UniProt P03522 17-511)		no binding (tested: 1 µg/mL)
B1	no binding (tested: CRP 3 µg/mL (25 nM))	
